# PubChem BioAssay AID1224830 | NIAID, 2016
# Test: 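Regulators of TLR4 signalling towards TNF-alpha in macrophage-like cells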 (primary screen)
# Cells: human THP-1 monocytic leukaemia cells, TNF dual-luciferase reporter clone, PMA-differentiated to macrophage-like cells
# Reagents: siRNA pool against human genes, 50 nM
# Duration: LPS for 4 h, given about 3 days after siRNA transfection
# Challenge: bacterial LPS (TLR4 ligand), 10 ng/ml
# Measured: 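Ratio of firefly to renilla light, scaled to the plate median and expressed as a robust z-score per replicate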
# Scale: TNF reporter robust z-score: higher = stronger TNF reporter response to LPS
# Active means: 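Each well counts as active if its z-score is over 2.8 or under -1.5; controls are left without a call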
# This is an unselected part of about 18,000 reagents. About 2,900 of them (16%) count as active. 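Calls are made per well; low scores hint the gene aids the LPS response, high scores that it dampens it.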 Repeated entries: four replicate wells of each siRNA pool. Reagent sequences are not shown.
target gene,TNF reporter robust z-score,Call
ERI2 (ERI1 exoribonuclease family member 2),1.55,inactive
ERI2 (ERI1 exoribonuclease family member 2),2.49,inactive
ERI2 (ERI1 exoribonuclease family member 2),1.53,inactive
ERI2 (ERI1 exoribonuclease family member 2),2.26,inactive
SEBOX (SEBOX homeobox),-0.61,inactive
SEBOX (SEBOX homeobox),0.85,inactive
SEBOX (SEBOX homeobox),0.33,inactive
SEBOX (SEBOX homeobox),-0.11,inactive
MRI1 (methylthioribose-1-phosphate isomerase 1),-0.27,inactive
MRI1 (methylthioribose-1-phosphate isomerase 1),0.35,inactive
MRI1 (methylthioribose-1-phosphate isomerase 1),0.61,inactive
MRI1 (methylthioribose-1-phosphate isomerase 1),1.26,inactive
PREB (prolactin regulatory element binding),-1.39,inactive
PREB (prolactin regulatory element binding),-0.43,inactive
PREB (prolactin regulatory element binding),-0.65,inactive
PREB (prolactin regulatory element binding),0.67,inactive
HS1BP3 (HCLS1 binding protein 3),-0.44,inactive
HS1BP3 (HCLS1 binding protein 3),0.52,inactive
HS1BP3 (HCLS1 binding protein 3),-0.46,inactive
HS1BP3 (HCLS1 binding protein 3),0.18,inactive
"GOLGA8EP (golgin A8 family member E, pseudogene)",0.24,inactive
"GOLGA8EP (golgin A8 family member E, pseudogene)",0.14,inactive
"GOLGA8EP (golgin A8 family member E, pseudogene)",-0.28,inactive
"GOLGA8EP (golgin A8 family member E, pseudogene)",-0.31,inactive
RGPD7 (retired record),1.3,inactive
RGPD7 (retired record),1.48,inactive
RGPD7 (retired record),1.04,inactive
RGPD7 (retired record),0.3,inactive
SSX3 (SSX family member 3),0.03,inactive
SSX3 (SSX family member 3),0.21,inactive
SSX3 (SSX family member 3),0.07,inactive
SSX3 (SSX family member 3),0.39,inactive
ACOT9 (acyl-CoA thioesterase 9),-0.41,inactive
ACOT9 (acyl-CoA thioesterase 9),-0.6,inactive
ACOT9 (acyl-CoA thioesterase 9),-0.38,inactive
ACOT9 (acyl-CoA thioesterase 9),-0.75,inactive
PLEKHG3 (pleckstrin homology and RhoGEF domain containing G3),-0.94,inactive
PLEKHG3 (pleckstrin homology and RhoGEF domain containing G3),-0.35,inactive
PLEKHG3 (pleckstrin homology and RhoGEF domain containing G3),-1.03,inactive
PLEKHG3 (pleckstrin homology and RhoGEF domain containing G3),-0.63,inactive
TNFSF13B (TNF superfamily member 13b),-0.68,inactive
TNFSF13B (TNF superfamily member 13b),-0.54,inactive
TNFSF13B (TNF superfamily member 13b),-0.48,inactive
TNFSF13B (TNF superfamily member 13b),-0.06,inactive
TGIF1 (TGFB induced factor homeobox 1),0.45,inactive
TGIF1 (TGFB induced factor homeobox 1),0.44,inactive
TGIF1 (TGFB induced factor homeobox 1),-0.27,inactive
TGIF1 (TGFB induced factor homeobox 1),1.57,inactive
CCDC57 (coiled-coil domain containing 57),0.34,inactive
CCDC57 (coiled-coil domain containing 57),-0.49,inactive
CCDC57 (coiled-coil domain containing 57),-0.23,inactive
CCDC57 (coiled-coil domain containing 57),0.85,inactive
LRBA (LPS responsive beige-like anchor protein),-0.61,inactive
LRBA (LPS responsive beige-like anchor protein),-0.49,inactive
LRBA (LPS responsive beige-like anchor protein),0.21,inactive
LRBA (LPS responsive beige-like anchor protein),-0.22,inactive
WNT16 (Wnt family member 16),-0.41,inactive
WNT16 (Wnt family member 16),1.18,inactive
WNT16 (Wnt family member 16),-0.55,inactive
WNT16 (Wnt family member 16),1.04,inactive
UAP1L1 (UDP-N-acetylglucosamine pyrophosphorylase 1 like 1),-0.55,inactive
UAP1L1 (UDP-N-acetylglucosamine pyrophosphorylase 1 like 1),0.61,inactive
UAP1L1 (UDP-N-acetylglucosamine pyrophosphorylase 1 like 1),-0.81,inactive
UAP1L1 (UDP-N-acetylglucosamine pyrophosphorylase 1 like 1),0.29,inactive
ZNF385A (zinc finger protein 385A),-0.72,inactive
ZNF385A (zinc finger protein 385A),-1.35,inactive
ZNF385A (zinc finger protein 385A),-0.92,inactive
ZNF385A (zinc finger protein 385A),-0.98,inactive
RIPOR2 (RHO family interacting cell polarization regulator 2),-1.58,active
RIPOR2 (RHO family interacting cell polarization regulator 2),-1.52,active
RIPOR2 (RHO family interacting cell polarization regulator 2),-1.64,active
RIPOR2 (RHO family interacting cell polarization regulator 2),-1.27,inactive
TRAT1 (T cell receptor associated transmembrane adaptor 1),-1.26,inactive
TRAT1 (T cell receptor associated transmembrane adaptor 1),-0.95,inactive
TRAT1 (T cell receptor associated transmembrane adaptor 1),-0.22,inactive
TRAT1 (T cell receptor associated transmembrane adaptor 1),-1.38,inactive

Active calls (from the list above):
target gene,TNF reporter robust z-score,Call
RIPOR2 (RHO family interacting cell polarization regulator 2),-1.58,active
RIPOR2 (RHO family interacting cell polarization regulator 2),-1.52,active
RIPOR2 (RHO family interacting cell polarization regulator 2),-1.64,active
